The list shows a part of the results.
compound: c1cn2cc(-c3ccc4cn[nH]c4c3)nc(Nc3ccc(N4CCOCC4)cc3)c2n1 [entospletinib]; assay: log2 fold change, soluble protein after heating vs DMSO (PISA); higher = thermal stabilisation; K562 cells, 10 uM, 30 min; active = over 0.2 and 3.5 SD of the protein, either way, in both replicates (recomputed)
How it was run: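 Soluble protein was quantified by TMTpro 16plex LC-MS/MS after channel sums were equalised. It was obtained as the supernatant after 21,000xg for 90 min from pooled aliquots of K562 cells (2×10^6 cells/mL, 10 μM compound, 30 min) heated for 3 min across 48°C-58°C and extracted in PBS with 0.5% NP-40 at 4°C. Thermal stability values are relative to control samples and come from duplicates. They are given as log2 fold changes.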

Chains of the proteins cited; added tags and fusions are not shown. Lines headed by an entry give the natural chain unless they say otherwise; changes in a name come on top.
UniProt P48736: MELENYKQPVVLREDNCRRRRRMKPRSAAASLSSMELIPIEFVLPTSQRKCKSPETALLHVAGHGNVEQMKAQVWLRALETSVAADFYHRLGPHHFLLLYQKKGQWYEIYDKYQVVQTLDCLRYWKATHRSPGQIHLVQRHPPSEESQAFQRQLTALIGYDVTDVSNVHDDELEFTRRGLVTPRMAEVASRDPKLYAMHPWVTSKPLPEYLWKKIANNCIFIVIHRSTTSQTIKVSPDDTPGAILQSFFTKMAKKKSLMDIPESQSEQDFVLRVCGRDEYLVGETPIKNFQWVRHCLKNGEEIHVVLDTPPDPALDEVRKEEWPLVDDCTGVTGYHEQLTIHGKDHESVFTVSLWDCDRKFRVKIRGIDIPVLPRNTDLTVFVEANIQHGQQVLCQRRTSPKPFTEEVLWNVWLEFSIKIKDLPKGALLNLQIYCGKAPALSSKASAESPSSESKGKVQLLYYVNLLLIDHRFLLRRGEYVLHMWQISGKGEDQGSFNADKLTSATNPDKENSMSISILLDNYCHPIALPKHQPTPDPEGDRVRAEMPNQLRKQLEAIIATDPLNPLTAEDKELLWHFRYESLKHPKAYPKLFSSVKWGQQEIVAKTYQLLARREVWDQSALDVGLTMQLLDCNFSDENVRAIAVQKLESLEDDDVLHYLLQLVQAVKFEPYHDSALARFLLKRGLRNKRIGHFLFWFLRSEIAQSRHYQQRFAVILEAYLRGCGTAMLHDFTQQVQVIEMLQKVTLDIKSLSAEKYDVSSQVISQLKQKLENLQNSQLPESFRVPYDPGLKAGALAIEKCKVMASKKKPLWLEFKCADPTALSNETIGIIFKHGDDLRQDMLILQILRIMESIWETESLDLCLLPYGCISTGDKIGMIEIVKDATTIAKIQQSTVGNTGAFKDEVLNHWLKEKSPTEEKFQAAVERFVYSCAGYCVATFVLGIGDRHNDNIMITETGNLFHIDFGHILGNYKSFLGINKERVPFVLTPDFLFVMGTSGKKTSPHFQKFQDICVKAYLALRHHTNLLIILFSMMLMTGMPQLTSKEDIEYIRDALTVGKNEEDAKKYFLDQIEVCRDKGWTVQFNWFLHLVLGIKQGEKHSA
UniProt Q9NXJ5: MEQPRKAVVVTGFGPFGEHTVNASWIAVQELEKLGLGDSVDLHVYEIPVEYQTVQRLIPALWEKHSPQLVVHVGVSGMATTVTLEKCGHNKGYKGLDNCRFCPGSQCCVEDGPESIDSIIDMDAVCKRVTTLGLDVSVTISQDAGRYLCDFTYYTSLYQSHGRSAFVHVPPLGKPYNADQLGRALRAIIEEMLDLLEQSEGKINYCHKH
UniProt Q9HAU0: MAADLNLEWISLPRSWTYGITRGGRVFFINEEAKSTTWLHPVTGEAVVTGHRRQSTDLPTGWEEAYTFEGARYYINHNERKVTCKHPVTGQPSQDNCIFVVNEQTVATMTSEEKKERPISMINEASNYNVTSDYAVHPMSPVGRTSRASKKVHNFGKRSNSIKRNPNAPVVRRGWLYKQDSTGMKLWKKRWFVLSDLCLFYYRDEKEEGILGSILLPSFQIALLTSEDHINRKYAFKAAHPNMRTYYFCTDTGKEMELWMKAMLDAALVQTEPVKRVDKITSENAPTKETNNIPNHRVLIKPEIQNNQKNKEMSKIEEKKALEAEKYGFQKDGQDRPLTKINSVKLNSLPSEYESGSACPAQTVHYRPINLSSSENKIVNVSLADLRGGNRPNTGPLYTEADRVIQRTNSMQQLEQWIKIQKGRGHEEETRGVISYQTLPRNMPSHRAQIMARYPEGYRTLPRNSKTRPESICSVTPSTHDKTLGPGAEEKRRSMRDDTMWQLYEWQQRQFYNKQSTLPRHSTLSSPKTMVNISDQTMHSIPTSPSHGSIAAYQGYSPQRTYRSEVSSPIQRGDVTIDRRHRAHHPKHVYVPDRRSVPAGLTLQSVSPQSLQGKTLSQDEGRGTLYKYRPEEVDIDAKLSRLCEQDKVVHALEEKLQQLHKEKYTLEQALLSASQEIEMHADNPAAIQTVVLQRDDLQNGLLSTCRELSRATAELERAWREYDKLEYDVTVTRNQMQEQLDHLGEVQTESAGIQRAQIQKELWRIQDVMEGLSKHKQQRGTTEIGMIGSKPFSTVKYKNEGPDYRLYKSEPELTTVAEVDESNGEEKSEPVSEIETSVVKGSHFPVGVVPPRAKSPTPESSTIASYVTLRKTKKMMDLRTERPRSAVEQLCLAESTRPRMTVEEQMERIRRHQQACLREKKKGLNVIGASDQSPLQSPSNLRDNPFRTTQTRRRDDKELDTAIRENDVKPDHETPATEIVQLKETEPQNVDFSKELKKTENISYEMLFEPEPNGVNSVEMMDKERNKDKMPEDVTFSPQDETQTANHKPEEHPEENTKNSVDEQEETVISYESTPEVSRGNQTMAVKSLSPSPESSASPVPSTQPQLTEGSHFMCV
UniProt Q8N0Y7: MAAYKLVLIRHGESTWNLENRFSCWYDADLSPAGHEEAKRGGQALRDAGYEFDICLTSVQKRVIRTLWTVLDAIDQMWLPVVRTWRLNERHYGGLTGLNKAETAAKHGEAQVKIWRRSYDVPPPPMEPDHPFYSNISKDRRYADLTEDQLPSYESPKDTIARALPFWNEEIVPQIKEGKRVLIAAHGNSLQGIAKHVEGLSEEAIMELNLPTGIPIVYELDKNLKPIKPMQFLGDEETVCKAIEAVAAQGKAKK
UniProt Q96G03: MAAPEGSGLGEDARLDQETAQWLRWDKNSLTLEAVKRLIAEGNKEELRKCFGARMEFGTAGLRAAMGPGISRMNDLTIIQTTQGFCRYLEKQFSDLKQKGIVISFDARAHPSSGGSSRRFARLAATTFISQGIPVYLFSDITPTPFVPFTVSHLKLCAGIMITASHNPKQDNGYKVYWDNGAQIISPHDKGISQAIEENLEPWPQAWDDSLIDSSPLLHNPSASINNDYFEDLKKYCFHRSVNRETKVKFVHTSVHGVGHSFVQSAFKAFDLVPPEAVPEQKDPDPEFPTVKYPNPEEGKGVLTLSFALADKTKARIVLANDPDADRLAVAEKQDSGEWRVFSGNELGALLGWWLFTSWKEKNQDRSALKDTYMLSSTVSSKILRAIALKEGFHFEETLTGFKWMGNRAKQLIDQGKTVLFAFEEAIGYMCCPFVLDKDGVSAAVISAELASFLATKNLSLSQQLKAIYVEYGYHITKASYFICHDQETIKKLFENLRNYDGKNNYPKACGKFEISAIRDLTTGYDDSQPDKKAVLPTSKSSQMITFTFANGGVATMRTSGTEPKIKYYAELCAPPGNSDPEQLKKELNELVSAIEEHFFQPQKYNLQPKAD
UniProt Q9Y237, whole entry, looked up: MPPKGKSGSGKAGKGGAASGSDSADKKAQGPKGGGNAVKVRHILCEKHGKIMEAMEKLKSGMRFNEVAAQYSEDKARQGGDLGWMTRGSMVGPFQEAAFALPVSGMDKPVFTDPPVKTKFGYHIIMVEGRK
UniProt O00459, whole entry, looked up: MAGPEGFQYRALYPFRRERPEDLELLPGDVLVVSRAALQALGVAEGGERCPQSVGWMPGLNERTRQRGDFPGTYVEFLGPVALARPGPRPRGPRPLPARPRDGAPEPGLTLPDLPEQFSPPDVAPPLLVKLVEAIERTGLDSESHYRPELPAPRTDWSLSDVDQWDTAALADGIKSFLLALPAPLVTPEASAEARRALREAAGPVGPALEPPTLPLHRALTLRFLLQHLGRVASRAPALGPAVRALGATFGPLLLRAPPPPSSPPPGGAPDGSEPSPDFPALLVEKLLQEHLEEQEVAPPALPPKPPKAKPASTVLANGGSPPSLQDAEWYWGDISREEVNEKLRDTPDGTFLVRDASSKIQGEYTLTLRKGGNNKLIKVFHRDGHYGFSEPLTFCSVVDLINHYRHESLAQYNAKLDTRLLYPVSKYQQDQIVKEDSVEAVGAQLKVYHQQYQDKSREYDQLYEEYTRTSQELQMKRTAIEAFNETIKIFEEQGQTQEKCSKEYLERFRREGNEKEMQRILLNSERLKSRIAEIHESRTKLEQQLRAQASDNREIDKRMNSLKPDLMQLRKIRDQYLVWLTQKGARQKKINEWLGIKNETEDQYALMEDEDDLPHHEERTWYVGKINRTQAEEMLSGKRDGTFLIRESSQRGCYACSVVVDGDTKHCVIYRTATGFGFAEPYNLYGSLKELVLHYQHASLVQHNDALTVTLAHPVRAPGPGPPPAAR
UniProt Q9GZP4: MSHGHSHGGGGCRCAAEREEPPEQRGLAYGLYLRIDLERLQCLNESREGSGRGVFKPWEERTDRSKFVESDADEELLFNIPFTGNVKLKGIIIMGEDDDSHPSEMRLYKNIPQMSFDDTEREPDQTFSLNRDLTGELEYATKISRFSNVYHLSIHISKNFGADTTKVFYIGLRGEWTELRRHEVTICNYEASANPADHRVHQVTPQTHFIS
UniProt P12273: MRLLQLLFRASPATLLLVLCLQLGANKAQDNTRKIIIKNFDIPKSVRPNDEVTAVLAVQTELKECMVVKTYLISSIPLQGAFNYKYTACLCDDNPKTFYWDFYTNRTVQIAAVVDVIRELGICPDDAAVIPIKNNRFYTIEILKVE
UniProt Q92521: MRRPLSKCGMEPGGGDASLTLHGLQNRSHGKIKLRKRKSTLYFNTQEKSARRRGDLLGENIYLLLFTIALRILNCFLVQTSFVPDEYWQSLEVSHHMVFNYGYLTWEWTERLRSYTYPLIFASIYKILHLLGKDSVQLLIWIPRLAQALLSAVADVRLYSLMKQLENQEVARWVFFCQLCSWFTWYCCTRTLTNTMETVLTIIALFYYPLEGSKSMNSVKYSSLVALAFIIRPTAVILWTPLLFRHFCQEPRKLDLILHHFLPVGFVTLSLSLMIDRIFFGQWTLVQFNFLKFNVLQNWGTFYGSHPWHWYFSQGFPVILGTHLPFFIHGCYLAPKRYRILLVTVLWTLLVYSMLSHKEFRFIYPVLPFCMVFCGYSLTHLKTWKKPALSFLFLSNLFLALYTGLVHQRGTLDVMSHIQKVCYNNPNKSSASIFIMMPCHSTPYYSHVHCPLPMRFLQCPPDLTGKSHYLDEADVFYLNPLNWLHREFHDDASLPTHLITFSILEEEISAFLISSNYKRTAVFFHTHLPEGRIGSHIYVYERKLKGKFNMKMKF
UniProt Q9BSJ6: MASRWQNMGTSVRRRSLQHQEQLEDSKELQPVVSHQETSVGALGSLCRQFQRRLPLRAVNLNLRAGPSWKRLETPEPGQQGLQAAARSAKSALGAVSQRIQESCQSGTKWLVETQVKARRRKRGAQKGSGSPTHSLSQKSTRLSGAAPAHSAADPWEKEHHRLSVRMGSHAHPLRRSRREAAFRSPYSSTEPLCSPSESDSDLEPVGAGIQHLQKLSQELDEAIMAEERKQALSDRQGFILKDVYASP
UniProt P40855: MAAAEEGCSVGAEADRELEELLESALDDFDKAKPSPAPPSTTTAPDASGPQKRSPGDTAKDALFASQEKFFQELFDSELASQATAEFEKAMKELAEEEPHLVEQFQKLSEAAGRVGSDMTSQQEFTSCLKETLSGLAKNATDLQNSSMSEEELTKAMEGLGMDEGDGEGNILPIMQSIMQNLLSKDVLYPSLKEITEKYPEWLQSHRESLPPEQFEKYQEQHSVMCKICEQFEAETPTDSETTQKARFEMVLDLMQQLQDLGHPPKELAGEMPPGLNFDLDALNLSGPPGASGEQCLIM
PIGBOS1, A0A0B4J2F0, UniProt A0A0B4J2F0, whole entry, looked up: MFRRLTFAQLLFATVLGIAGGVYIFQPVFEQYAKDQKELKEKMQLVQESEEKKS
UniProt O95427: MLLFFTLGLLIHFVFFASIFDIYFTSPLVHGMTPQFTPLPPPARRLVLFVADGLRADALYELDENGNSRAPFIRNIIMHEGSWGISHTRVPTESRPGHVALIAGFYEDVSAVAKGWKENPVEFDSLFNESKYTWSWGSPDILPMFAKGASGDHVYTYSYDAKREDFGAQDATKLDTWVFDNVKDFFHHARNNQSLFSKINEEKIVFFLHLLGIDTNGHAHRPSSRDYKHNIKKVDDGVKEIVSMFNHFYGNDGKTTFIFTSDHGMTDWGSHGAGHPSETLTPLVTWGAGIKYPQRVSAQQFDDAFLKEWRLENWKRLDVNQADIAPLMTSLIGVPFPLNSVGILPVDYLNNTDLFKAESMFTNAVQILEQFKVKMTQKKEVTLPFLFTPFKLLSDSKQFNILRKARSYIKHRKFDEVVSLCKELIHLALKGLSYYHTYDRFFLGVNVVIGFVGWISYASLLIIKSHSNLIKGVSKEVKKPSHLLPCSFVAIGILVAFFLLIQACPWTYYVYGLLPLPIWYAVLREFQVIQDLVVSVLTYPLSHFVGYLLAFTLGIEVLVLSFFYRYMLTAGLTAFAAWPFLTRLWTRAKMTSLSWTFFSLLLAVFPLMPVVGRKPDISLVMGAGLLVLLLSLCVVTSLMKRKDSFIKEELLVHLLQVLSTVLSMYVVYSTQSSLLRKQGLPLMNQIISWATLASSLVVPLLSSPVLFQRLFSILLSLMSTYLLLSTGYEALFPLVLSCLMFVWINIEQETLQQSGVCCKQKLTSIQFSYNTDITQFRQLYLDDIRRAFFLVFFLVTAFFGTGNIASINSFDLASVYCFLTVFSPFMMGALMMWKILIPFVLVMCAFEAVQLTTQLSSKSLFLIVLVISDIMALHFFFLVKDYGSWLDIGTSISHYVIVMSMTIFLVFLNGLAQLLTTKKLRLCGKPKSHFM

Target	log2 fold change
PIK3CG (UniProt P48736)	inactive: 0.038
PKMYT1 (UniProt Q99640)	inactive: 0.044
PGPEP1 (UniProt Q9NXJ5)	inactive: -0.276
PIK3R4 (UniProt Q99570)	inactive: -0.009
PLEKHA5 isoform 6 (UniProt Q9HAU0)	inactive: 0.468
PFKP (UniProt Q01813)	inactive: 0
PHKG2 (UniProt P15735)	active: -0.279
PGM2L1 (UniProt Q6PCE3)	inactive: -0.001
PLEC (UniProt Q15149)	inactive: 0.043
PIGW (UniProt Q7Z7B1)	inactive: -0.059
PGAM4 (UniProt Q8N0Y7)	inactive: 0.017
PHF23 (UniProt Q9BUL5)	inactive: -0.053
PKIB isoform 2 (UniProt Q9C010)	inactive: -0.073
PGM2 (UniProt Q96G03)	inactive: -0.037
PIGQ (UniProt Q9BRB3)	inactive: 0.156
PI4KB isoform 2 (UniProt Q9UBF8)	inactive: 0.085
PIN4 isoform 2 (UniProt Q9Y237)	inactive: -0.025
PIK3R2 (UniProt O00459)	inactive: 0.012
PLA2G12A (UniProt Q9BZM1)	inactive: -0.053
PIGM (UniProt Q9H3S5)	inactive: -0.167
PITHD1 (UniProt Q9GZP4)	inactive: 0.13
PIP (UniProt P12273)	inactive: -0.231
PFDN6 (UniProt O15212)	inactive: 0.008
PIGB (UniProt Q92521)	inactive: 0.075
PGAM5 (UniProt Q96HS1)	inactive: 0.093
PIMREG (UniProt Q9BSJ6)	inactive: 0.107
PEX19 (UniProt P40855)	inactive: 0.019
PIGBOS1, A0A0B4J2F0	inactive: 0.105
PIGN (UniProt O95427)	inactive: -0.022
PFKFB3 isoform 4 (UniProt Q16875)	inactive: -0.042

A run of entries taken from the entries so far, as a working copy:
Target	log2 fold change
PIGB (UniProt Q92521)	inactive: 0.075
PGAM5 (UniProt Q96HS1)	inactive: 0.093
